Values of other authors, collected in PMC5646416 (Journal of clinical pharmacy and therapeutics, 2017).

Details: single-dose pharmacokinetic studies

AUC higher in rs4149056 CC homozygotes than in rs4149056 TT homozygotes: 144%
SMILES: CC(C)c1c(C(=O)Nc2ccccc2)c(-c2ccccc2)c(-c2ccc(F)cc2)n1CC[C@@H](O)C[C@@H](O)CC(=O)O [atorvastatin]
